# Earlier results in publication PMC11387443, “Determination of bisphosphonate properties in terms of bioavailability, bone affinity, and cytotoxicity” (Pharmacological Reports, 2024).
# Design: method as in PMID 18056045
# Details: cited from earlier work
smiles,measurement,value
NCCCC(O)(P(=O)(O)O)P(=O)(O)O [alendronate],urinary excretion 24 h after the first dose,44%
